For at least one compound, name, drawing or mass did not settle the structure. Numbered stars: 1 amine (or outer) side, 2 acyl side, 3 side chain; on linkers, the order of the positions; unused ones are H or OH. Square brackets hold non-standard residues; d marks the D form. Peptide text beside a SMILES is read from it. X1 = O=C(C(CB(O)O)N[*:1])[*:2]
What was measured:
PKA [1] = target: T1, PKA (Homo sapiens, UniProt P17612); test: PKA inhibition, Cellular Mimetic assay; format: biochemical; conditions: 0 h preincubation, read-out: IC50 μM (cond. C, 0 h preincubation)
Description: (§1) The boronic acid inhibitors 21-24 have two Arg's in their sequence also and therefore will bind to the phosphocellulose paper in addition to Kemptamide (although not as consistently or completely due to one less positive charge). Consequently, when analyzed as inhibitors, the amount of phosphorylated Kemptamide produced was not only counted, but also the amount of phosphorylated inhibitor simultaneously produced (e.g. see 26 below). The net result is that distorted IC50 curves are obtained which show net “stimulation” at higher inhibitor concentrations in some cases. […] The underlying substrate behavior of these “inhibitors” makes an accurate measurement of their inhibition potency impossible with the current assay. However, it does appear from the data that homologating the boronic acid functionality out with only CH2 groups (homologations with boronic acid non-peptide Src inhibitors may also be carried out) decreases the binding affinity and ability to function as a substrate.

PKA [2] = target: T1, PKA; test: PKA inhibition, Literature Mimetic assay; format: biochemical; conditions: 0 h preincubation, read-out: IC50 μM (cond. L, 0 h preincubation)
Description: as §1

[3] = tested on: osteoclasts on bone slices; test: Bone resorption in vitro on bone slices; format: cell-based; conditions: versus untreated control
osteoclasts = test: Osteoclast survival; format: cell-based; conditions: 48 hours with RANKL and M-CSF; versus untreated control
[4] = tested on: osteoclast precursors derived from spleen cells; test: Osteoclast formation from spleen-derived precursors; format: cell-based; conditions: 5 days with RANKL and M-CSF; versus untreated control

SMILES | IC50 (PKA [1]) [µM] | IC50 (PKA [2]) [µM] | number of TRAP-positive osteoclasts on the bone slices (TRAP stain) [3] | number of osteoclasts on the bone slices [3] | number of resorption pits on the bone slices [3] | number of resorption pits on the bone slices (Toluidine Blue) [3] | number of TRAP-positive osteoclasts (survival) (osteoclasts) | survival of osteoclasts (staining) (osteoclasts) | formation of osteoclasts (staining) [4] | number of TRAP-positive osteoclasts (formation) [4]
CC[C@H](C)[C@H](NC(=O)C(CB(O)O)NC(=O)CNC(=O)[C@H](CCCNC(=N)N)NC(=O)[C@H](CCCNC(=N)N)NC(C)=O)C(N)=O (stereo partly shown) (Ac-RRG[X1]I-NH2) | 764 | 249 | – | – | – | – | – | – | – | –
CO[C@H]1C[C@@H]2CC[C@@H](C)[C@@](O)(O2)C(=O)C(=O)N2CCCC[C@H]2C(=O)O[C@H]([C@H](C)C[C@@H]2CC[C@@H](O)[C@H](OC)C2)CC(=O)[C@H](C)/C=C(\C)[C@@H](O)[C@@H](OC)C(=O)[C@H](C)C[C@H](C)/C=C/C=C/C=C/1C [Rapamycin] | – | – | reduced the number of TRAP-positive osteoclasts on the bone slices | reduced the number of osteoclasts on the bone slices | reduced the number of resorption pits on the bone slices | reduced the number of resorption pits on the bone slices | reduced the number of TRAP-positive osteoclasts | inhibited the survival of osteoclasts | inhibited the formation of osteoclasts | reduced the number of TRAP-positive osteoclasts

Source: patent US7838542B2, “Bicyclic compositions and methods for modulating a kinase cascade” (Kinex Pharmaceuticals, LLC, priority 2006, dated 2010)
